The other results are listed elsewhere or left out. These are raw signals, not scaled to a control.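 Primary screen: polymyxin B was added at a level permeabilizing Salmonella outer membranes while sparing inner membranes. DMSO wells, both with and without polymyxin B, established maximum growth. Plate-to-plate variation meant each plate was ranked on its own, and the lowest-OD600 compounds were selected as hits.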
System: Salmonella enterica serovar Typhimurium SL1344
Assay: bacterial growth OD600 after 18 h with compound and polymyxin B; higher = more bacterial growth (less inhibition)
Conditions: 50 µM, Mueller-Hinton broth

| Structure (SMILES) | bacterial growth OD600 (polymyxin B 0.75 µg/mL) | bacterial growth OD600 (polymyxin B 1 µg/mL) |
| --- | --- | --- |
| O=C1N(Cc2cccnc2)C[C@@H]2C[C@@H](c3cccc(-n4cccn4)c3)N3CCC[C@@]123 | 0.856 |  |
| COC(=O)c1cc(CNC(=O)c2cccs2)cc(NS(=O)(=O)c2cccc(C(F)(F)F)c2)c1 | 0.01 |  |
| O=C(CC1(c2ccccc2)CC(=O)N(CC2CCCCC2)C1=O)N(CCO)Cc1ccccc1 (stereo unspecified) | 0.002 |  |
| Cc1ccsc1C(=O)N(Cc1ccc(OCc2ccc3c(c2)OCO3)cc1)CC1CCCO1 (stereo unspecified) | 0.008 |  |
| COCCNC(=O)c1ccc(OC)cc1OC1CCN(Cc2ccc(C)o2)CC1 |  | 1.1 |
| CSc1ccc(CC2(CCC(=O)NCc3nc(-c4ccccc4)no3)CCC(=O)N2)cc1 (stereo unspecified) | 0.715 |  |
| CC(C)Cn1cc(C(=O)NCc2nc(-c3ccccc3)cs2)c(=O)c(C(=O)N2CCCCCC2)c1 | 0.094 |  |
| c1ccc(OCc2noc(-c3ccc(NCC4CCCCO4)nc3)n2)cc1 (stereo unspecified) |  | 0.721 |
| CC(=O)c1ccc(F)c(-c2cc(C)cc3c2OC(CNC(=O)C(C)(C)C)C3)c1 (stereo unspecified) | 0.732 |  |
| CCN(CCO)c1ccc(-c2nc(Cc3ccc(F)cc3)no2)cn1 | 0.04 |  |
| Cc1cccc(C)c1Oc1ncccc1CNC(=O)CC(C)C |  | 1.13 |
| Cc1ccc2c(C)nc(N3CCCC(C(=O)NCC(C)C)C3)nc2c1 (stereo unspecified) | 0.908 |  |
| CCOC(=O)C1(CCc2ccccc2)CCN(C(=O)CCc2cnn(C)c2)CC1 |  | 0.807 |
| COCCO[C@H]1[C@H](NC(=O)C(C)C)c2ccccc2C12CCN(C(=O)c1ccsc1)CC2 | 0.902 |  |
| O=C(c1ccoc1)N1CCC2(CCCN(Cc3ccc(F)c(F)c3)C2=O)C1 (stereo unspecified) |  | 0.963 |
| Cc1c(C(=O)N2CC3CCC2C3)cnn1-c1ncc2c(n1)-c1ccccc1CCC2 (stereo unspecified) | 0.86 |  |

| Structure (SMILES) | bacterial growth OD600 (polymyxin B 0.75 µg/mL) | bacterial growth OD600 (polymyxin B 1 µg/mL) |
| --- | --- | --- |
| Cc1ccc(CN(C)C(=O)C2CCC(=O)N(CCN3CCOCC3)C2)o1 (stereo unspecified) |  | 0.921 |
| Fc1ccc(-c2cnnc(NCCCc3cccnc3)n2)cc1 | 0.802 |  |
| O=C(c1csc2nc(-c3cccc(Cl)c3)cn12)N1CCC(CO)CC1 | 0.858 |  |
| COc1ccc(CCCNC(=O)c2ccc(N3CCC(O)CC3)nc2)cc1 |  | 0.933 |
| Cc1ccc(F)cc1CNC1CCN(c2ccc(C(=O)NCCN3CCOCC3)cc2)CC1 | 0.716 |  |
| Cc1cc(C)c(C(=O)N2CCCC(Nc3ccccc3)C2)[nH]1 (stereo unspecified) | 0.85 |  |
| CN(CC1CCCN(CCc2ccc(F)cc2)C1)C(=O)C1=CC(=O)CC(C)(C)O1 (stereo unspecified) |  | 1.11 |
| CN(Cc1ccon1)C(=O)c1cc(COc2cccc(C(F)(F)F)c2)[nH]n1 | 0.749 |  |
| Cc1ccc2c(c1)CN(Cc1cccnc1)CC(c1ccsc1)O2 (stereo unspecified) | 0.003 |  |
| CC(C)CCNC(=O)CCN1Cc2ccccc2OC(c2ccccc2F)C1 (stereo unspecified) | 0.002 |  |
| O=C(NCCCN1CCCC1=O)c1ccc2nc(C3CCCCC3)oc2c1 |  | 0.85 |
| COc1cccc(-c2ccc(NC(=O)C3CCCN3C3CCN(C)CC3)cc2)c1 (stereo unspecified) | 0.592 |  |
| CCOc1ccc(CN2CCc3c(C(=O)N4CCCCC4C(=O)OC)c(OC)cc(=O)n3CC2)cc1 (stereo unspecified) | 0.87 |  |
| COC(=O)[C@@H]1CCCN1C(=O)C1CCN(c2nc(C)c3ccc(S(C)(=O)=O)cc3n2)CC1 | 0.843 |  |
| COC(=O)CCC(=O)N1CCCC(N2CCN(c3cccc(C(F)(F)F)c3)CC2)C1 (stereo unspecified) |  | 0.97 |

Part of the list above in order of length of the SMILES, rising:

| Structure (SMILES) | bacterial growth OD600 (polymyxin B 0.75 µg/mL) | bacterial growth OD600 (polymyxin B 1 µg/mL) |
| --- | --- | --- |
| CC(C)CCNC(=O)CCN1Cc2ccccc2OC(c2ccccc2F)C1 (stereo unspecified) | 0.002 |  |
| CN(Cc1ccon1)C(=O)c1cc(COc2cccc(C(F)(F)F)c2)[nH]n1 | 0.749 |  |
| COC(=O)CCC(=O)N1CCCC(N2CCN(c3cccc(C(F)(F)F)c3)CC2)C1 (stereo unspecified) |  | 0.97 |

— the supplement of paper PMC12889115
